Experimental data taken from the supplement of paper PMC10849652.
This is one part of the list.

Protein sequences, listed by entry. Tags and fused reporters are not part of them. Lines headed by an entry give the natural chain unless they say otherwise; changes in a name come on top.
UniProt Q9Y5P6: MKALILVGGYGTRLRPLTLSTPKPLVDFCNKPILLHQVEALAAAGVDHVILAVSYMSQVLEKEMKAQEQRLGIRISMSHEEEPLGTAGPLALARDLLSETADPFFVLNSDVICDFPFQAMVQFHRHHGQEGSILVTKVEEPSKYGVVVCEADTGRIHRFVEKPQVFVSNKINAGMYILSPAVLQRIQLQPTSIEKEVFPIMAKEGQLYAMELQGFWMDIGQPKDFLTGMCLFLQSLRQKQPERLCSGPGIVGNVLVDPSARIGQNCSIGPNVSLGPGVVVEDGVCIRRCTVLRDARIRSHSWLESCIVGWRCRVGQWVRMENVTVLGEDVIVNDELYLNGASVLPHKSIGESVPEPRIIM
UniProt P06280: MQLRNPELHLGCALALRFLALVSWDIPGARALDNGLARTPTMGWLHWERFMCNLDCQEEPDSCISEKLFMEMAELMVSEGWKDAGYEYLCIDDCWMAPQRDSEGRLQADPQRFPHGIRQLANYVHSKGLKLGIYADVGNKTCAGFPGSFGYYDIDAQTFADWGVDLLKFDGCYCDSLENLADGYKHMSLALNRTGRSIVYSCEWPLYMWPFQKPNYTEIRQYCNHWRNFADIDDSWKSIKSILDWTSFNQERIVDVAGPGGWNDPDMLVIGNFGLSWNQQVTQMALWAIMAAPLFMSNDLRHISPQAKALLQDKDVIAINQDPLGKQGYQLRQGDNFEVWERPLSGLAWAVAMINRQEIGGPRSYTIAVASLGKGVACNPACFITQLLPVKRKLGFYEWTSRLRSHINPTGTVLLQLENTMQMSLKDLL
UniProt Q86VQ1: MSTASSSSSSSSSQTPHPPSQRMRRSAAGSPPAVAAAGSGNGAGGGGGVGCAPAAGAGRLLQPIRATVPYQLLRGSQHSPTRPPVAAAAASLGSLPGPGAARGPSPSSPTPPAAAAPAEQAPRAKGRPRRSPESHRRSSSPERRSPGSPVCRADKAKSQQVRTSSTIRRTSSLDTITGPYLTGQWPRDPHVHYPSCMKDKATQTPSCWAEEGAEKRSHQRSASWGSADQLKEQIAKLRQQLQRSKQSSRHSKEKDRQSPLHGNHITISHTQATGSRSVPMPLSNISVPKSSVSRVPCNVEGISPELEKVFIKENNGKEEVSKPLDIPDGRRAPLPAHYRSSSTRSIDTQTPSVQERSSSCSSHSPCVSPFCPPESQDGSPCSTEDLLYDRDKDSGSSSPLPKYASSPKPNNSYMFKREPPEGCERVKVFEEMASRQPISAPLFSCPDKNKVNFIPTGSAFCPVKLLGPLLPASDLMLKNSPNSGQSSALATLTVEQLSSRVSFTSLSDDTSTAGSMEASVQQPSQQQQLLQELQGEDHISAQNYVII
UniProt Q9Y692: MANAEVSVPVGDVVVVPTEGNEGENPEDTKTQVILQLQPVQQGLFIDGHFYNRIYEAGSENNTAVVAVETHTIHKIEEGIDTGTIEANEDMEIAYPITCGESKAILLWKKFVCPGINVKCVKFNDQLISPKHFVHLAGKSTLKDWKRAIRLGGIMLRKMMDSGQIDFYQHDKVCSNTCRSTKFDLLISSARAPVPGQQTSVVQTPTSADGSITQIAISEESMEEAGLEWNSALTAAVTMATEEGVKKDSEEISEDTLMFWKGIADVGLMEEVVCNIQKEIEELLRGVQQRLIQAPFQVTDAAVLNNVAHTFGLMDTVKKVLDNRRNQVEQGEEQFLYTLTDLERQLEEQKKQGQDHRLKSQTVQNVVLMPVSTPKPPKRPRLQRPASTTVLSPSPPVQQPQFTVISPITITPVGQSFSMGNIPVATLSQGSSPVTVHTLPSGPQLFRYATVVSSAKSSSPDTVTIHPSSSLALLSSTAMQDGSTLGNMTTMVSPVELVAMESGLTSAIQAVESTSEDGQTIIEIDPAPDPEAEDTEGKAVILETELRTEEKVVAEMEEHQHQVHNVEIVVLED
UniProt P00367: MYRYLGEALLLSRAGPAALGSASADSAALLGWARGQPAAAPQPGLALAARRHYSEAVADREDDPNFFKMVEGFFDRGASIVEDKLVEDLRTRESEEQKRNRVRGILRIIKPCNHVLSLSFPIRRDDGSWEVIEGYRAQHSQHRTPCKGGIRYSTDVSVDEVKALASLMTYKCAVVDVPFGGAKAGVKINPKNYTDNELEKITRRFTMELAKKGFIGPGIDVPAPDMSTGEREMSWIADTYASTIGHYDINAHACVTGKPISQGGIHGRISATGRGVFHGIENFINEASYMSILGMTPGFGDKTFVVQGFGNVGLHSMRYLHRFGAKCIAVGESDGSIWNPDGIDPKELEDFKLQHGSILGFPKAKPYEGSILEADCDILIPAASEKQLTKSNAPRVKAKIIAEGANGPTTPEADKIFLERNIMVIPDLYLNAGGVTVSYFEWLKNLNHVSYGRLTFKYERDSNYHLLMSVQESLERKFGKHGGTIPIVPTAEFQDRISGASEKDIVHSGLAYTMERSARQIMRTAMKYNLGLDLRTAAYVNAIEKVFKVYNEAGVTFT
UniProt Q96EK6: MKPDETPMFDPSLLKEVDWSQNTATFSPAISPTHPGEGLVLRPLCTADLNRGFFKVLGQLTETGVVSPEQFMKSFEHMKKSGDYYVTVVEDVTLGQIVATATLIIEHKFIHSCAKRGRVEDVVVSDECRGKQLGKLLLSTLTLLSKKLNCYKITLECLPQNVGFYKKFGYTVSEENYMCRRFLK
UniProt Q92896: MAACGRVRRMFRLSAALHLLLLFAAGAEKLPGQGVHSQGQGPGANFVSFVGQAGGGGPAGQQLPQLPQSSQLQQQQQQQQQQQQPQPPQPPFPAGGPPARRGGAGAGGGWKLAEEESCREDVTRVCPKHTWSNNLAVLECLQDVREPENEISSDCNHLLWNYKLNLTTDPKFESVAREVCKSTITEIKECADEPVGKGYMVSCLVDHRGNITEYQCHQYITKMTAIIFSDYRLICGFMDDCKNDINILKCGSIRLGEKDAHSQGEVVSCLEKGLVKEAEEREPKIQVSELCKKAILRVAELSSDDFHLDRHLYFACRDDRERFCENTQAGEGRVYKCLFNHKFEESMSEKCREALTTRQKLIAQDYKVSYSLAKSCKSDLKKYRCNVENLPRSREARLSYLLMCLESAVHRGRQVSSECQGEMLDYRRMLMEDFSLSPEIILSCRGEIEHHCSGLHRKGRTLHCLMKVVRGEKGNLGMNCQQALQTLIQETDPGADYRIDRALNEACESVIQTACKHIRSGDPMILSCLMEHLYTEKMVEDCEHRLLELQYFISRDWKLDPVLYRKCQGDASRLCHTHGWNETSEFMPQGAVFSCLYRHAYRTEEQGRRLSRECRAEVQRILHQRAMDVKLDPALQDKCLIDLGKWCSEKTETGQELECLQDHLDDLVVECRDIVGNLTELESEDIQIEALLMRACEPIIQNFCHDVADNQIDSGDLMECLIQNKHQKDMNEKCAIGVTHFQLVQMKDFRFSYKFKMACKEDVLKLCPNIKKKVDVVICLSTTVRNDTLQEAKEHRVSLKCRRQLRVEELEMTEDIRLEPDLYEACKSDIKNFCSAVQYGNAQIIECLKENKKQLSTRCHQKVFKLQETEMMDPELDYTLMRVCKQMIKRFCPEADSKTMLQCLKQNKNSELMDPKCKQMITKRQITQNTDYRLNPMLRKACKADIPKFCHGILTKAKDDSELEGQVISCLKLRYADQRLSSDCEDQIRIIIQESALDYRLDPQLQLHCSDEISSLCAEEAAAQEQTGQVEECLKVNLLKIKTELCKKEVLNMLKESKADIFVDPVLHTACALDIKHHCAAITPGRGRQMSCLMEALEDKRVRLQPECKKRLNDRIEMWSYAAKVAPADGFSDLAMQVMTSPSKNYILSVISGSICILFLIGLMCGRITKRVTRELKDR
UniProt Q7Z2K8: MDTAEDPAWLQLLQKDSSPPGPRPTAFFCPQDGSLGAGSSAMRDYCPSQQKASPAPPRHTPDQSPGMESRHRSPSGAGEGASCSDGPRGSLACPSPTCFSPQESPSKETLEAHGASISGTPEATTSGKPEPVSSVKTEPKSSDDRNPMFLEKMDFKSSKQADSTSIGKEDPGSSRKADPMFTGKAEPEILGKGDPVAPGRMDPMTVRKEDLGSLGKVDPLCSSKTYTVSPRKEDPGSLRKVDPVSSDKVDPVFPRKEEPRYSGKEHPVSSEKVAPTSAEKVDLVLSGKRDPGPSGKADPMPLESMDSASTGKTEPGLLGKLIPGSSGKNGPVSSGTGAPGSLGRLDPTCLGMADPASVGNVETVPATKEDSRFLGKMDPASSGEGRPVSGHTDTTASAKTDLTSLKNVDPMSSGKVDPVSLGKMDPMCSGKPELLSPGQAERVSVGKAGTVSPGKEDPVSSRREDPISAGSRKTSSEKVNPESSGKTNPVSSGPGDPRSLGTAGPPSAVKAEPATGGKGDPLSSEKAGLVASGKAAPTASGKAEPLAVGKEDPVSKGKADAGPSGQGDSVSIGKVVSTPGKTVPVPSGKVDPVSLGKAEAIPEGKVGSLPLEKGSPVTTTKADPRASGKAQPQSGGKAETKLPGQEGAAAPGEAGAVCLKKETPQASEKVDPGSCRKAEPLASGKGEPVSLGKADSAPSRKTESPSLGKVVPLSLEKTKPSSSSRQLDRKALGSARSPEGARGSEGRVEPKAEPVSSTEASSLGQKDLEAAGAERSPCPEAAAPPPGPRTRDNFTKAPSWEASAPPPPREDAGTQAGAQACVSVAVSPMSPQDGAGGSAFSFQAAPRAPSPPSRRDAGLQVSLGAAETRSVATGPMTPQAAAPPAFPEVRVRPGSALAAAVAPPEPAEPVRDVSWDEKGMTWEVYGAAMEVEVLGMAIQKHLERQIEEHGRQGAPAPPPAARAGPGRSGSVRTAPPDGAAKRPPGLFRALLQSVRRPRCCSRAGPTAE
UniProt P49448: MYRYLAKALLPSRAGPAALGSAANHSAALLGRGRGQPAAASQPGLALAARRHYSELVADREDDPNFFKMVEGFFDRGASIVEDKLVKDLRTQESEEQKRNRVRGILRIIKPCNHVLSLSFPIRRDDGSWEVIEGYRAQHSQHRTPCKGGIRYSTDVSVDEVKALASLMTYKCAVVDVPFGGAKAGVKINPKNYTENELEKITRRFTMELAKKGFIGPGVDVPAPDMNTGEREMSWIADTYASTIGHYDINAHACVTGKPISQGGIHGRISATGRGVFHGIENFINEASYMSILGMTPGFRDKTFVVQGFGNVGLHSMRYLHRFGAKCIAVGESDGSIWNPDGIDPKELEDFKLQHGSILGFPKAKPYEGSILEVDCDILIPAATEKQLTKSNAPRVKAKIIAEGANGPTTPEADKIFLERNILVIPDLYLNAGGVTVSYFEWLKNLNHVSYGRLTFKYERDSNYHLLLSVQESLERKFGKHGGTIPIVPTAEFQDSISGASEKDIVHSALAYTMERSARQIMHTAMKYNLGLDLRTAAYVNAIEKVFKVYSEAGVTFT
UniProt O14908: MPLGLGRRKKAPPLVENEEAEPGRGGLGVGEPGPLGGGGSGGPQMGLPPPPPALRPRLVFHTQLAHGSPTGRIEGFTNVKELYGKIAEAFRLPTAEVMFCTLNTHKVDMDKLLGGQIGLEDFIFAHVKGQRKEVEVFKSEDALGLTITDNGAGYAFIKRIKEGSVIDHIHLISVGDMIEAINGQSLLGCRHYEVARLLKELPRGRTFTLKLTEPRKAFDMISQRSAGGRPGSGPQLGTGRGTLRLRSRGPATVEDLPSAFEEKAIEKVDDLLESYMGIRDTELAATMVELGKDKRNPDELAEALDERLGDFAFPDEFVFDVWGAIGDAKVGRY
UniProt Q9NS18: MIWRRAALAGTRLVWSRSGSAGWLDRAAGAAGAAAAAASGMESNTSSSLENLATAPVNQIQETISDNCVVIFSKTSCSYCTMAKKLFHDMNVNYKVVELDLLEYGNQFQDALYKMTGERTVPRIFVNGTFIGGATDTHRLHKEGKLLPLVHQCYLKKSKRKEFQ
UniProt P36915, whole entry, looked up: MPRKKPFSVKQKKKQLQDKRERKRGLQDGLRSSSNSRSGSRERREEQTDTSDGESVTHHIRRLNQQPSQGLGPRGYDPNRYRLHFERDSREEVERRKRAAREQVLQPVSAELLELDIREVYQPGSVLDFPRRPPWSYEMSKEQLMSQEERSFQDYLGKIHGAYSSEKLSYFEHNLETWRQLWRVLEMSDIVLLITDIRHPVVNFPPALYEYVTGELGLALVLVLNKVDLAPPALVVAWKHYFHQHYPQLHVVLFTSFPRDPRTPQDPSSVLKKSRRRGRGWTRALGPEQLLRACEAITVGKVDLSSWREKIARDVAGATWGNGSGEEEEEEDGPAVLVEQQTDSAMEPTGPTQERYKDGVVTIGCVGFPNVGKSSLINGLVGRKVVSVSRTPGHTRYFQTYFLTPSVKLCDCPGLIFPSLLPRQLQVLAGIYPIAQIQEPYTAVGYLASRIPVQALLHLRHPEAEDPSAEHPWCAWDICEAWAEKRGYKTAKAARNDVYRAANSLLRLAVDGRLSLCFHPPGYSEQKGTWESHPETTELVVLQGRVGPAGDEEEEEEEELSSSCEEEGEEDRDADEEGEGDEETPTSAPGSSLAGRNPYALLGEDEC

How the values were obtained:
Assay in all cases: log2 fold change, soluble protein after heating vs DMSO (PISA); higher = thermal stabilisation; K562 cells, 10 uM, 30 min; active = over 0.2 and 3.5 SD of the protein, either way, in both replicates (recomputed)
bafetinib = compound: Cc1ccc(NC(=O)c2ccc(CN3CC[C@H](N(C)C)C3)c(C(F)(F)F)c2)cc1Nc1nccc(-c2cncnc2)n1 [bafetinib]
In short: (§1)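 Soluble protein was quantified by TMTpro 16plex LC-MS/MS after channel sums were equalised. It was obtained as the supernatant after 21,000xg for 90 min from pooled aliquots of K562 cells (2×10^6 cells/mL, 10 μM compound, 30 min) heated for 3 min across 48°C-58°C and extracted in PBS with 0.5% NP-40 at 4°C. Thermal stability values are relative to control samples and come from duplicates. They are given as log2 fold changes.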

[1] = compound: Cc1cccc(CC(=O)N2CCc3c2ccc(-c2cn(C)c4ncnc(N)c24)c3F)n1
In short: as §1

nilotinib = compound: Cc1cn(-c2cc(NC(=O)c3ccc(C)c(Nc4nccc(-c5cccnc5)n4)c3)cc(C(F)(F)F)c2)cn1 [nilotinib]
In short: as §1

[2] = compound: Cc1nc(Nc2n[nH]c3c2CN(C(=O)N[C@H](CN(C)C)c2ccccc2)C3(C)C)c2sccc2n1
In short: as §1

dasatinib = compound: Cc1nc(Nc2ncc(C(=O)Nc3c(C)cccc3Cl)s2)cc(N2CCN(CCO)CC2)n1 [dasatinib]
In short: as §1

[3] = compound: Cc1ncc(-c2ccnc(Nc3ccc(S(C)(=O)=O)cc3)n2)n1C(C)C
In short: as §1

[4] = compound: Cn1cc(-c2ccc3c(c2)CCN3C(=O)Cc2cccc(C(F)(F)F)c2)c2c(N)ncnc21
In short: as §1

[5] = compound: Cn1cc(-c2ccc3nnc(C(F)(F)c4ccc5ncccc5c4)n3n2)cn1
In short: as §1

tipifarnib = compound: Cn1cncc1[C@@](N)(c1ccc(Cl)cc1)c1ccc2c(c1)c(-c1cccc(Cl)c1)cc(=O)n2C [tipifarnib]
In short: as §1

mubritinib = compound: FC(F)(F)c1ccc(/C=C/c2nc(COc3ccc(CCCCn4ccnn4)cc3)co2)cc1 [mubritinib]
In short: as §1

[6] = compound: NC(=O)Nc1cc(-c2cccc(F)c2)sc1C(=O)N[C@H]1CCCNC1
In short: as §1

[7] = compound: NC(=O)c1cnc(N[C@@H]2CCCC[C@@H]2N)nc1Nc1cccc(-n2nccn2)c1
In short: as §1

[8] = compound: NC1(c2ccc(-c3nc4ccn5c(=O)[nH]nc5c4cc3-c3ccccc3)cc2)CCC1
In short: as §1

[9] = compound: NCC(=O)Nc1ccc(-n2nc(C(F)(F)F)cc2-c2ccc3c(ccc4ccccc43)c2)cc1
In short: as §1

entinostat = compound: Nc1ccccc1NC(=O)c1ccc(CNC(=O)OCc2cccnc2)cc1 [entinostat]
In short: as §1

vorinostat = compound: O=C(CCCCCCC(=O)Nc1ccccc1)NO [vorinostat]
In short: as §1

citarinostat = compound: O=C(CCCCCCNC(=O)c1cnc(N(c2ccccc2)c2ccccc2Cl)nc1)NO [citarinostat]
In short: as §1

silmitasertib = compound: O=C(O)c1ccc2c(c1)nc(Nc1cccc(Cl)c1)c1ccncc12 [silmitasertib]
In short: as §1

[10] = compound: O=C1NC(=O)C(c2cnc3ccccn23)=C1c1cn2c3c(cc(F)cc13)CN(C(=O)N1CCCCC1)CC2
In short: as §1

[11] = compound: c1cc(OCCN2CCCCC2)cc(-c2n[nH]c3ccc(-c4nnc[nH]4)cc23)c1
In short: as §1

Measured: log2 fold change

GMPPB isoform 2 (UniProt Q9Y5P6)
inactive: bafetinib 0.048 | [1] -0.013 | nilotinib 0.057 | [2] -0.013 | dasatinib -0.029 | [3] 0.107 | [4] 0.053 | [5] -0.018 | tipifarnib -0.008 | mubritinib -0.004 | [6] 0.027 | [7] -0.018 | [8] -0.016 | [9] -0.006 | entinostat 0.038 | vorinostat 0.027 | citarinostat 0.042 | silmitasertib 0.013 | [10] -0.023 | [11] -0.026

GLA (UniProt P06280)
active: bafetinib -0.529
inactive: [1] -0.051 | nilotinib 0.021 | [2] -0.007 | dasatinib -0.039 | [3] -0.04 | [4] 0.005 | [5] 0.03 | tipifarnib 0.064 | mubritinib 0.035 | [6] 0.04 | [7] -0.049 | [8] -0.143 | [9] -0.066 | entinostat -0.034 | vorinostat 0.056 | citarinostat 0.027 | silmitasertib -0.03 | [10] -0.036 | [11] 0.029

GLCCI1 (UniProt Q86VQ1)
inactive: bafetinib -0.074 | [1] 0.037 | nilotinib 0.073 | [2] -0.103 | dasatinib -0.066 | [3] -0.094 | [4] 0.03 | [5] -0.175 | tipifarnib 0.075 | mubritinib 0.011 | [6] -0.12 | [7] 0.03 | [8] -0.024 | [9] 0.102 | entinostat 0.056 | vorinostat 0.158 | citarinostat 0.002 | silmitasertib -0.042 | [10] 0.01 | [11] -0.088

GPATCH8 (UniProt Q9UKJ3)
inactive: bafetinib -0.032 | [1] -0.047 | nilotinib 0.005 | [2] -0.22 | dasatinib -0.045 | [3] 0.111 | [4] 0.019 | [5] -0.067 | tipifarnib 0.087 | mubritinib 0.044 | [6] 0.008 | [7] -0.023 | [8] -0.059 | [9] 0.071 | entinostat 0.005 | vorinostat 0.116 | citarinostat 0.008 | silmitasertib 0.018 | [10] 0.023 | [11] -0.069

GMEB1 (UniProt Q9Y692)
inactive: bafetinib -0.12 | [1] -0.048 | nilotinib -0.04 | [2] -0.036 | dasatinib -0.06 | [3] 0.001 | [4] 0.019 | [5] 0.044 | tipifarnib -0.204 | mubritinib -0.03 | [6] 0.066 | [7] -0.072 | [8] -0.047 | [9] 0.027 | entinostat 0.073 | vorinostat 0.001 | citarinostat 0.057 | silmitasertib 0.112 | [10] -0.053 | [11] -0.004

GLUD1 (UniProt P00367)
inactive: bafetinib 0.25 | [1] 0.012 | dasatinib 0.056 | [3] -0.015 | [4] 0.173 | [5] 0.04 | tipifarnib 0.068 | mubritinib 0.046 | [6] -0.058 | [7] -0.014 | [8] -0.043 | [9] -0.032 | entinostat -0.051 | vorinostat -0.061 | citarinostat -0.023 | silmitasertib -0.095 | [10] 0.082 | [11] 0.052
active: nilotinib 0.382 | [2] 0.266

GNPNAT1 (UniProt Q96EK6)
inactive: bafetinib -0.014 | [1] -0.074 | nilotinib 0.028 | [2] 0.014 | dasatinib 0.028 | [3] -0.018 | [4] 0.079 | [5] 0.032 | tipifarnib -0.019 | mubritinib 0.013 | [6] 0.039 | [7] 0.009 | [8] 0.002 | [9] 0.026 | entinostat -0.056 | vorinostat -0.045 | citarinostat -0.018 | silmitasertib 0.013 | [10] 0.003 | [11] -0.063

GLG1 isoform 2 (UniProt Q92896)
inactive: bafetinib -0.038 | [1] -0.007 | nilotinib -0.007 | [2] 0.005 | dasatinib 0 | [3] 0.009 | [4] 0.025 | [5] 0.035 | tipifarnib 0.01 | mubritinib 0.002 | [6] 0 | [7] 0.023 | [8] -0.063 | [9] 0.054 | entinostat 0.008 | vorinostat 0.011 | citarinostat 0.026 | silmitasertib 0.025 | [10] -0.011 | [11] -0.001

GPBP1L1 (UniProt Q9HC44)
inactive: bafetinib -0.113 | [1] -0.17 | nilotinib 0.058 | [2] 0.01 | dasatinib 0.006 | [3] 0.141 | [4] 0.064 | [5] 0.03 | tipifarnib 0.041 | mubritinib -0.037 | [6] -0.013 | [7] 0.026 | [8] -0.179 | [9] -0.004 | entinostat 0.013 | vorinostat 0.039 | citarinostat -0.026 | silmitasertib 0.133 | [10] -0.003 | [11] -0.074

GPRIN1 (UniProt Q7Z2K8)
inactive: bafetinib 0.059 | [1] -0.005 | nilotinib 0.093 | [2] -0.076 | dasatinib -0.001 | [3] 0.012 | [4] 0.087 | [5] 0.057 | tipifarnib 0.033 | mubritinib -0.002 | [6] -0.048 | [7] 0.082 | [8] 0.056 | [9] 0.02 | entinostat -0.047 | vorinostat 0.004 | citarinostat -0.067 | silmitasertib -0.004 | [10] -0.026 | [11] 0.026

GNA13 (UniProt Q14344)
inactive: bafetinib 0.036 | [1] -0.055 | nilotinib 0.03 | [2] -0.035 | dasatinib -0.047 | [3] 0.001 | [4] 0.033 | [5] -0.05 | tipifarnib -0.003 | mubritinib 0.007 | [6] -0.038 | [7] 0.016 | [8] 0.038 | [9] -0.039 | entinostat -0.052 | vorinostat -0.013 | citarinostat 0.014 | silmitasertib 0.019 | [10] -0.041 | [11] -0.016

GOLGA4 isoform 5 (UniProt Q13439)
inactive: bafetinib -0.221 | [1] 0.098 | nilotinib -0.228 | [2] -0.046 | dasatinib -0.017 | [3] -0.06 | [4] -0.109 | [5] 0.08 | tipifarnib 0.041 | mubritinib 0.033 | [6] -0.072 | [7] -0.108 | [8] -0.01 | [9] -0.085 | entinostat 0.038 | vorinostat 0 | citarinostat -0.196 | silmitasertib 0.121 | [10] -0.062 | [11] -0.172

GLUD2 (UniProt P49448)
active: nilotinib 0.478 | [4] 0.265
inactive: bafetinib 0.234 | [1] 0.02 | [2] 0.21 | dasatinib -0.021 | [3] -0.031 | [5] -0.028 | tipifarnib 0.079 | mubritinib 0.041 | [6] -0.086 | [7] -0.03 | [8] -0.006 | [9] 0.027 | entinostat -0.053 | vorinostat -0.051 | citarinostat -0.07 | silmitasertib -0.136 | [10] -0.008 | [11] -0.017

3 neighbouring entries already listed:
GPRIN1 (UniProt Q7Z2K8)
inactive: bafetinib 0.059 | [1] -0.005 | nilotinib 0.093 | [2] -0.076 | dasatinib -0.001 | [3] 0.012 | [4] 0.087 | [5] 0.057 | tipifarnib 0.033 | mubritinib -0.002 | [6] -0.048 | [7] 0.082 | [8] 0.056 | [9] 0.02 | entinostat -0.047 | vorinostat 0.004 | citarinostat -0.067 | silmitasertib -0.004 | [10] -0.026 | [11] 0.026

GNA13 (UniProt Q14344)
inactive: bafetinib 0.036 | [1] -0.055 | nilotinib 0.03 | [2] -0.035 | dasatinib -0.047 | [3] 0.001 | [4] 0.033 | [5] -0.05 | tipifarnib -0.003 | mubritinib 0.007 | [6] -0.038 | [7] 0.016 | [8] 0.038 | [9] -0.039 | entinostat -0.052 | vorinostat -0.013 | citarinostat 0.014 | silmitasertib 0.019 | [10] -0.041 | [11] -0.016

GOLGA4 isoform 5 (UniProt Q13439)
inactive: bafetinib -0.221 | [1] 0.098 | nilotinib -0.228 | [2] -0.046 | dasatinib -0.017 | [3] -0.06 | [4] -0.109 | [5] 0.08 | tipifarnib 0.041 | mubritinib 0.033 | [6] -0.072 | [7] -0.108 | [8] -0.01 | [9] -0.085 | entinostat 0.038 | vorinostat 0 | citarinostat -0.196 | silmitasertib 0.121 | [10] -0.062 | [11] -0.172

Next results.

GIPC1 (UniProt O14908)
inactive: bafetinib -0.012 | [1] 0.006 | nilotinib 0.012 | [2] -0.074 | dasatinib -0.082 | [3] 0.038 | [4] 0.028 | [5] 0.048 | tipifarnib -0.045 | mubritinib 0.045 | [6] -0.036 | [7] -0.031 | [8] -0.086 | [9] -0.06 | entinostat -0.016 | vorinostat 0.014 | citarinostat -0.039 | silmitasertib 0.101 | [10] 0.034 | [11] -0.154

GLRX2 isoform 2 (UniProt Q9NS18)
inactive: bafetinib -0.026 | [1] -0.015 | nilotinib 0.171 | [2] 0.046 | dasatinib 0.045 | [3] 0.061 | [4] -0.002 | [5] -0.044 | tipifarnib 0.032 | mubritinib 0.091 | [6] -0.152 | [7] 0.086 | [8] 0.078 | [9] 0.155 | entinostat -0.034 | vorinostat 0.004 | citarinostat 0.043 | silmitasertib -0.218 | [10] -0.145 | [11] 0.009

GNL1 (UniProt P36915)
inactive: bafetinib -0.02 | [1] 0.019 | nilotinib -0.024 | [2] 0.05 | dasatinib -0.084 | [3] 0.054 | [4] 0.047 | [5] -0.03 | tipifarnib -0.152 | mubritinib 0.009 | [6] -0.045 | [7] -0.071 | [8] -0.114 | [9] -0.019 | entinostat 0.001 | vorinostat 0.008 | citarinostat 0.022 | silmitasertib -0.021 | [10] -0.005 | [11] -0.011
